# At least one peptide structure holds a part that was inferred or is arguable (an end, a ring closure or a residue).
# Key:
# [1] = test system: NCI-H69 human SCLC xenograft tumors; assay: Anti-tumor efficacy, H69 xenograft; format: in vivo, SCID mice
# [2] = test system: NCI-H727 lung carcinoid xenograft tumors; assay: Anti-tumor efficacy, H727 xenograft; format: in vivo, SCID mice; conditions: single treatment
# [3] = test system: SSTR expressing metastatic GEP-NETs; conditions: 100 kBq/kg at 8-week intervals; ^177Lu-DOTATATE refractory patients; median follow-up 8 months; cited from earlier work
smiles,measurement,setting,value
"C[C@@H](O)[C@H](NC(=O)[C@@H]1CSSC[C@H](NC(=O)[C@@H](Cc2ccccc2)NC(=O)CN2CCN(CC(=O)O)CCN(CC(=O)O)CCN(CC(=O)O)CC2)C(=O)N[C@@H](Cc2ccc(O)cc2)C(=O)N[C@H](Cc2c[nH]c3ccccc23)C(=O)N[C@@H](CCCCN)C(=O)N[C@@H]([C@@H](C)O)C(=O)N1)C(=O)O [^225Ac-DOTATATE, metal not drawn]",median time to endpoint,"[1]; 148.7 kBq single bolus, endpoint 2000 mm^3 tumor volume",93.6 ± 10.1 days
same,tumor response following TAT,[1]; single treatment,all tumors disappeared and then re-grew
same,tumor response following TAT,[2],all tumors disappeared and then re-grew
same,short-term clinical results,[3],can overcome resistance to ^177Lu-DOTATATE

# Reference: US20230382819A1, “PROCESSES FOR SYNTHESIS OF ALPHA-EMITTING RADIOPHARMACEUTICALS” (priority 2020, published 2023)
